Laboratory results published in patent publication US20210380952A1, “Method to Produce Virus in Cultured Cells Supplemented With Alpha-Ketoglutarate” (THE TRUSTEES OF PRINCETON UNIVERSITY, priority 2012, published 2021).
For at least one compound, name, drawing or mass did not settle the structure.

Tested on: VZV
Test: Yield of cell-free VZV from infected MRC5 cells, plaque assay on ARPE-19 cells
Assay type: cell-based, varicella zoster virus
Details: with 10 μM α-T, 6 h after infection; HSA and DHA 25 μM, AA 100 μM; MOI 1:100, 72 hours post infection

Compound: CC/C=C\C/C=C\C/C=C\C/C=C\C/C=C\C/C=C\CCC(=O)O [DHA, docosahexaenoic acid]
- VZV yield relative to no treatment (NT): elevated the yield of VZV
